Test results as given in PubChem BioAssay AID743255 (National Center for Advancing Translational Sciences (NCATS), 2014).
Where “and” joins values, the source holds several entries; their conditions need not be identical. Equal values may be shown once. In all, about 390,000 compounds went through this assay and about 910 (0.23%) were called active. The shares of active, inactive and inconclusive entries below differ from those in the screen. The call rests on the fitted dose curve; in most records, active means well fitted inhibition curve with a large enough effect; inconclusive means small, poorly fitted or top-dose-only effect; inactive means no such curve, though single readings can be large or run the other way. Potencies beside an inconclusive call are fits to weak or partial responses and may not hold up.

By UniProt entry, the sequences of proteins in these tests, tags left out. Where a name states a change or a piece, a line headed by the entry shows the natural chain unless it says otherwise.
UniProt O94782: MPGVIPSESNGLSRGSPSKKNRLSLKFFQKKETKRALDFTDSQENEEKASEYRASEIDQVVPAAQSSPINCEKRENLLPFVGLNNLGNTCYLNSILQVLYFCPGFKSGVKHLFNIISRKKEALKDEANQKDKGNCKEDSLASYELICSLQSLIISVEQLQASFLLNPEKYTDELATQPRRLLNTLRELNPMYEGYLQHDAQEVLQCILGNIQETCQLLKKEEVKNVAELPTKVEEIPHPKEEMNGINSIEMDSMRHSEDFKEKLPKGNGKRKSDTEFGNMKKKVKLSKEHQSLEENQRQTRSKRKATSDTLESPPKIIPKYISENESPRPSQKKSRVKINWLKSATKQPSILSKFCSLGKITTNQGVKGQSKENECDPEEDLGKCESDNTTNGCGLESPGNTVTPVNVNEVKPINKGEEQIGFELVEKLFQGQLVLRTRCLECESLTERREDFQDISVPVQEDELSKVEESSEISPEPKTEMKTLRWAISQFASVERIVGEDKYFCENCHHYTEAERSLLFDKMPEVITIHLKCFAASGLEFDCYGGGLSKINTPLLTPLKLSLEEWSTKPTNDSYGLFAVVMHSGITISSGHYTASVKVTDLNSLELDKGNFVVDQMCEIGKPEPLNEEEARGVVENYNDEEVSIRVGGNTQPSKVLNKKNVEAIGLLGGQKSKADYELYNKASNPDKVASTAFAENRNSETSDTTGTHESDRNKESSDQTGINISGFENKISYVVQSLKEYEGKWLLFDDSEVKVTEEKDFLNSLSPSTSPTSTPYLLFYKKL

These molecules were tested against Ubiquitin carboxyl-terminal hydrolase 1 (Homo sapiens) (UniProt O94782) (assay: Inhibitors of USP1/UAF1: Primary Screen). Details: recombinant USP1/UAF1, Ub-Rhodamine cleavage fluorescence; activity change, negative = inhibition: at 57.1 µM (top of the series).
Procedure, shortened: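 High-throughput fluorogenic screen: 1nM USP1/UAF1 complex, Ub-Rho substrate 150nM final, 50mM HEPES pH 7.8 with 0.5mM EDTA, 0.1 mg/ml BSA, 1mM TCEP and 0.01% Tween-20.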
Further: nearly all actives have a fitted effect of over 60% in size.
On the % scale 0 is the no-effect control and ±100 the full control effect; potency means the concentration at half of the fitted maximal effect.

| Compound | activity change, negative = inhibition | Potency |
| --- | --- | --- |
| Cc1ccc(/C=C/C(=O)c2ccc([N+](=O)[O-])o2)cc1 | inactive: -15.6% |  |
| CC(NC(=O)c1ccc(N2Cc3ccccc3Oc3ncccc32)s1)c1ccccc1 (centres undefined) |  | inconclusive: 35.5 µM [inhibitor, single point] |
| O=C(C1CCCCC1)N1C[C@H](n2cc(-c3ccc(F)cc3)nn2)[C@@H](O)C[C@@H]1c1ccc(Cl)cc1 |  | inconclusive: 44.7 µM [inhibitor, partial curve, poor fit] |
| COc1ccc(/C=N/NC(=O)CCSc2nc3ccccc3s2)cc1 | inactive: -18% |  |
| CCOc1cc(/C=N/NC(=O)c2cc(C3CC3)[nH]n2)ccc1O |  | inconclusive: 6.31 µM [inhibitor, partial curve, poor fit] |
| Cc1nnc(N2CCC(C(=O)NCc3cccc(Cl)c3)CC2)c2nn(-c3ccccc3)c(C)c12 |  | inconclusive: 50.1 µM [inhibitor, single point] |
| CCc1ccccc1N1CC(c2nc3ccccc3n2CCC2CCCCC2)CC1=O (centres undefined) | inactive: -3.09% |  |
| CCCCCCN1C[C@@H](n2cc(C3CC3)nn2)[C@H](O)C[C@@H]1c1ccc(OC)cc1 | inactive: -7.64% |  |
| COC(=O)c1cccc(NC(=O)c2ccc(OC)c(Cl)c2)c1 |  | inconclusive: 1.41 µM [inhibitor, full curve] |
| CCNC(=O)C1CCCc2c1[nH]c1ccc(Cl)cc21 (centres undefined) |  | inconclusive: 31.6 µM [inhibitor, partial curve, poor fit] |
| C=C1c2cc(C)c(C)cc2NC(=O)N1c1ccccc1 |  | inconclusive: 44.7 µM [inhibitor, partial curve] |
| Cc1ccccc1C(C)(O)c1cnc(C)n1Cc1ccccc1 (centres undefined) |  | inconclusive: 7.94 µM [inhibitor, partial curve] |
| Cc1ccc(-c2ncccc2OC(=O)C23CC4CC(CC(C4)C2)C3)cc1 |  | inconclusive: 7.08 µM [inhibitor, full curve, poor fit] |
| Cc1ccc(C)c(NS(=O)(=O)c2ccc3c(c2)CCCN3C(=O)C2CCC2)c1 | inconclusive: -15.6% [inhibitor] |  |
| CC(=O)Nc1nc(C)c(-c2csc(Nc3cccc([N+](=O)[O-])c3)n2)s1 | inactive: -1.06% |  |
| C[C@@H]1CN([C@H](C)CO)C(=O)CCCn2nncc2CO[C@@H]1CN(C)C(=O)CCC(F)(F)F |  | inconclusive: 0.251 µM [inhibitor, full curve, poor fit] |
| S=c1[nH]nc(-c2cc(-c3ccccc3)n[nH]2)n1/N=C/c1cccc(Cl)c1 |  | inconclusive: 1.41 µM [inhibitor, full curve, poor fit] |
| COC(=O)c1cc(OC)c(OC)cc1NC(=O)Nc1ccccc1F |  | inconclusive: 70.8 µM [inhibitor, partial curve, poor fit] |
| Cc1ccc(NC(=O)N2CCc3c([nH]c4ccccc34)C2c2ccccc2F)c(Cl)c1 (centres undefined) | inactive: -13.5% |  |
| Cc1cccc(NC(=O)CN2CCN(CC(=O)Nc3ccc(-c4ccccc4)cc3)CC2)c1C |  | inconclusive: 1.58 µM [inhibitor, partial curve] |

| Compound | activity change, negative = inhibition | Potency |
| --- | --- | --- |
| O=[N+]([O-])c1ccc(S(=O)(=O)c2ccccc2)nc1 |  | inconclusive: 35.5 µM [inhibitor, partial curve, poor fit] |
| O=C(NC(=S)NCc1ccco1)c1ccccc1 | inactive: -1.14% |  |
| O=C(COc1ccc([N+](=O)[O-])cc1)N/N=C/c1cc([N+](=O)[O-])ccc1N1CCOCC1 | inactive: -22.3% |  |
| CCn1c(CN2CCC(C)CC2)nc2cc(NC(=O)c3cccc([N+](=O)[O-])c3)ccc21 |  | inconclusive: 0.251 µM [inhibitor, full curve, poor fit] |
| COc1ccc(NS(=O)(=O)c2cc3c4c(c2)CC(=O)N4CCC3)cc1Cl |  | inconclusive: 89.1 µM [inhibitor, partial curve] |
| O=C(NC1(C(F)(F)F)N=C(c2ccccc2)N(C2CCCCC2)C1=O)c1ccccc1F (centres undefined) |  | inconclusive: 1.26 µM [inhibitor, full curve, poor fit] |
| CSc1cccc(NC(=O)N2CCN(C)CC2)c1 |  | inconclusive: 44.7 µM [inhibitor, partial curve, poor fit] |
| COC(=O)C1=C(C)NC2=C(C(=O)c3ccccc32)C1c1ccc(-c2ccc(C(=O)O)cc2)o1 (centres undefined) |  | inconclusive: 44.7 µM [inhibitor, partial curve, poor fit] |
| Cc1cccc(Cn2nnc3c2C(=O)c2ccccc2C3=O)c1 |  | inconclusive: 39.8 µM [inhibitor, partial curve] |
| O=C(Nc1cc([N+](=O)[O-])ccc1O)c1ccc2c(c1)C(=O)N(Cc1ccco1)C2=O |  | inconclusive: 39.8 µM [inhibitor, partial curve, poor fit] |
| O=[N+]([O-])c1ccc(NN=Cc2ccc(O)cc2O)nc1 |  | inconclusive: 56.2 µM [inhibitor, partial curve, poor fit] |
| S=C1NCN(Cc2ccco2)CN1c1cccc2ccccc12 | inactive: -13.2% |  |
| CCOc1ccccc1N1CCN(C(=O)NCc2ccc(C)cc2)CC1 |  | inconclusive: 39.8 µM [inhibitor, partial curve, poor fit] |
| COc1cc(NC(=O)Cn2c(=O)n(CC3CCCO3)c(=O)c3cc(OC)c(OC)cc32)cc(OC)c1 (centres undefined) |  | inconclusive: 398 µM [inhibitor, partial curve, poor fit] and inconclusive: 794 nM [inhibitor, full curve] |
| CN1C(C(=O)NC(C)(C)C)=CC(c2ccc3c(c2)OCO3)=NS1(=O)=O |  | inconclusive: 6.31 µM [inhibitor, full curve, poor fit] |
| CC1CN(C(=O)Nc2ccc3snnc3c2)c2ccccc21 (centres undefined) |  | inconclusive: 0.794 µM [inhibitor, full curve] |
| Cc1cccc(Cn2c(SCc3ccc(C(=O)NCc4ccccc4F)cc3)nc3cccnc32)c1 |  | inconclusive: 5.01 µM [inhibitor, partial curve, poor fit] |
| COc1ccc(Cl)cc1S(=O)(=O)N1CCCC1=O |  | inconclusive: 44.7 µM [inhibitor, partial curve, poor fit] |
| Cc1cc(N2CCN(c3ncccn3)CC2)nc2c(C)cccc12 |  | inconclusive: 35.5 µM [inhibitor, partial curve] |

Ordered by molecular weight (low to high): part of the list above

| Compound | activity change, negative = inhibition | Potency |
| --- | --- | --- |
| O=[N+]([O-])c1ccc(S(=O)(=O)c2ccccc2)nc1 |  | inconclusive: 35.5 µM [inhibitor, partial curve, poor fit] |
| Cc1cc(N2CCN(c3ncccn3)CC2)nc2c(C)cccc12 |  | inconclusive: 35.5 µM [inhibitor, partial curve] |
| CN1C(C(=O)NC(C)(C)C)=CC(c2ccc3c(c2)OCO3)=NS1(=O)=O |  | inconclusive: 6.31 µM [inhibitor, full curve, poor fit] |
| O=C(Nc1cc([N+](=O)[O-])ccc1O)c1ccc2c(c1)C(=O)N(Cc1ccco1)C2=O |  | inconclusive: 39.8 µM [inhibitor, partial curve, poor fit] |
| CCn1c(CN2CCC(C)CC2)nc2cc(NC(=O)c3cccc([N+](=O)[O-])c3)ccc21 |  | inconclusive: 0.251 µM [inhibitor, full curve, poor fit] |
| COC(=O)C1=C(C)NC2=C(C(=O)c3ccccc32)C1c1ccc(-c2ccc(C(=O)O)cc2)o1 (centres undefined) |  | inconclusive: 44.7 µM [inhibitor, partial curve, poor fit] |
| O=C(NC1(C(F)(F)F)N=C(c2ccccc2)N(C2CCCCC2)C1=O)c1ccccc1F (centres undefined) |  | inconclusive: 1.26 µM [inhibitor, full curve, poor fit] |
